{
  "sequences": {"note": "Protein sequences, listed by entry. Tags and fused reporters are not part of them.", "UniProt P20795": "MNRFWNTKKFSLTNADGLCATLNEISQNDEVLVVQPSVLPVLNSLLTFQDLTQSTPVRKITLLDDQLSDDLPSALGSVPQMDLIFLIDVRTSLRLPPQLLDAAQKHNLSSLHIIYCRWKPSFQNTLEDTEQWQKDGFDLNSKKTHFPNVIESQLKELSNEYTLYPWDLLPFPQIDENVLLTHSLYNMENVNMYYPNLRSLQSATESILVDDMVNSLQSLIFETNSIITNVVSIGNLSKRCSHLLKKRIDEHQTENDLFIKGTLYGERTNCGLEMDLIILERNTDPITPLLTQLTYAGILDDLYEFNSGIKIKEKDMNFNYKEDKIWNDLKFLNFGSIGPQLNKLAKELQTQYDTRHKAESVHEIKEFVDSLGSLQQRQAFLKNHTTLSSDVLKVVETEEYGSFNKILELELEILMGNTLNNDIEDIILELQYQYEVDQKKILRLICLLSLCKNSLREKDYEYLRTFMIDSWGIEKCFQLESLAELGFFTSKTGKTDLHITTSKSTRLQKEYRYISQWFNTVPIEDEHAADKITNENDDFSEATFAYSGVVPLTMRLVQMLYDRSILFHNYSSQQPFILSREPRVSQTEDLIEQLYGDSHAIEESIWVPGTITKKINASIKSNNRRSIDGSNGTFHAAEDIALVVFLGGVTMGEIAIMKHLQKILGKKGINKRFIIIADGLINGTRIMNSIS", "UniProt Q03308": "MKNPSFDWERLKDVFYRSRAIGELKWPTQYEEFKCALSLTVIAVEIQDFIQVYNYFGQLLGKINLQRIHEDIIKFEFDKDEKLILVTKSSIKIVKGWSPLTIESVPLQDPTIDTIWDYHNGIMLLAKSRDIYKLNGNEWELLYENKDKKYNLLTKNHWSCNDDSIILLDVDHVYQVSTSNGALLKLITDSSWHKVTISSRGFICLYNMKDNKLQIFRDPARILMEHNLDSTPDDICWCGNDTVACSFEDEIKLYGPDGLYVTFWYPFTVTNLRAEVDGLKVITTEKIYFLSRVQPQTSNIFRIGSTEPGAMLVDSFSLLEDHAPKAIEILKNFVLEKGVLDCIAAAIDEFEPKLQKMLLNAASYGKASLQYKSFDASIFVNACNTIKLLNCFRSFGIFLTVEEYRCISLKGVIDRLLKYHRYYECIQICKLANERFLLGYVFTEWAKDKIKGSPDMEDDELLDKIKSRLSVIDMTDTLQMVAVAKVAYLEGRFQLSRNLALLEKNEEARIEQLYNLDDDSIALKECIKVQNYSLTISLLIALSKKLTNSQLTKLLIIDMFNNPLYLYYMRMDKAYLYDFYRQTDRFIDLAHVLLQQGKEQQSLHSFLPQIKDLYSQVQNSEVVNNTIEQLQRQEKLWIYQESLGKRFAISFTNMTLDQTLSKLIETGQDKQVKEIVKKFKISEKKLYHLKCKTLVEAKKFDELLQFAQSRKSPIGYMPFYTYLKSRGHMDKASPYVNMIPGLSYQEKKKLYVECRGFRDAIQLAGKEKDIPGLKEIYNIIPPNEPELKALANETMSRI", "UniProt Q04338": "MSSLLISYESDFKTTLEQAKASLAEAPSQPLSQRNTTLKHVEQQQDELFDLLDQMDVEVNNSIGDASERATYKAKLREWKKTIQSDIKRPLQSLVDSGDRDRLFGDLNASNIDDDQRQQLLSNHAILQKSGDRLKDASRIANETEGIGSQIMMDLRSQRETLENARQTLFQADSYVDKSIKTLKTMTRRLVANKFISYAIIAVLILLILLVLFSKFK", "UniProt P32939": "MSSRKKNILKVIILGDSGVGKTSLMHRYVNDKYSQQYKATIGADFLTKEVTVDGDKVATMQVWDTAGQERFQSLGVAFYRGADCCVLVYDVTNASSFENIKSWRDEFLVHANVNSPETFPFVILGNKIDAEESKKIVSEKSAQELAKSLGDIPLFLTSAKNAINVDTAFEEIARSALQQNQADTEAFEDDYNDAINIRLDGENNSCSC", "UniProt P39940": "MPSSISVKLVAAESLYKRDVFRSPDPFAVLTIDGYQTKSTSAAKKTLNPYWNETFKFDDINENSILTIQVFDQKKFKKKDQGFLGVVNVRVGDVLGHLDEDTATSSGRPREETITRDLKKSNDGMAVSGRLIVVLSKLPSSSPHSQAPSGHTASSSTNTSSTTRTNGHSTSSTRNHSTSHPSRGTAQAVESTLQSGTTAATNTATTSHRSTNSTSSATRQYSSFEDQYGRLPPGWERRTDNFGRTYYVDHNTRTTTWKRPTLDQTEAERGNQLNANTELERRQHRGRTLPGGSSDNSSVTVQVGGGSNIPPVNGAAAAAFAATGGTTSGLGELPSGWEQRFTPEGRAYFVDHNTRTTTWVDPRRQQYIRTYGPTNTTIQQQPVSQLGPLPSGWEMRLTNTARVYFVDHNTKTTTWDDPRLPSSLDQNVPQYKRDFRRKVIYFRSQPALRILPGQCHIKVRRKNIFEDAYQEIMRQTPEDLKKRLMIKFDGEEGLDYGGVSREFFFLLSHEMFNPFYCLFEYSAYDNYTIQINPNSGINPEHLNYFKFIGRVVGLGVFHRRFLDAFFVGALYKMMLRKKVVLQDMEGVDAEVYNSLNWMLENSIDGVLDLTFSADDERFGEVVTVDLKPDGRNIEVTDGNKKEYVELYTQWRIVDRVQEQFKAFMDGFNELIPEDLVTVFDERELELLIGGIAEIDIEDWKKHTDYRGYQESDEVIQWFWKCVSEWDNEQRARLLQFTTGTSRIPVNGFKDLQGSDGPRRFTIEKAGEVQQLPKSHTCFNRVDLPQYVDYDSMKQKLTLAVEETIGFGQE"},
  "source": "paper doi:10.1101/2023.08.21.554079",
  "molecules": {"B1": {"name": "Ykt6 (protein, UniProt P36015 1-200)", "chain": "MRIYYIGVFRSGGEKALELSEVKDLSQFGFFERSSVGQFMTFFAETVASRTGAGQRQSIEEGNYIGHVYARSEGICGVLITDKEYPVRPAYTLLNKILDEYLVAHPKEEWADVTETNDALKMKQLDTYISKYQDPSQADAIMKVQQELDETKIVLHKTIENVLQRGEKLDNLVDKSESLTASSKMFYKQAKKSNSCCIIM"}, "B2": {"name": "Nyv1 (protein, UniProt Q12255 1-253)", "chain": "MKRFNVSYVEVIKNGETISSCFQPFQKNENYGTITSANEQITPVIFHNLIMDMVLPKVVPIKGNKVTKMSMNLIDGFDCFYSTDDHDPKTVYVCFTLVDMPKILPIRILSGLQEYESNATNELLSSHVGQILDSFHEELVEYRNQTLNSSGNGQSSNGNGQNTISDIGDATEDQIKDVIQIMNDNIDKFLERQERVSLLVDKTSQLNSSSNKFRRKAVNIKEIMWWQKVKNITLLTFTIILFVSAAFMFFYLW"}, "B3": {"name": "Vam3 (protein, UniProt Q12241 1-283)", "chain": "MSFFDIEAQSSKGNSQQEPQFSTNQKTKELSNLIETFAEQSRVLEKECTKIGSKRDSKELRYKIETELIPNCTSVRDKIESNILIHQNGKLSADFKNLKTKYQSLQQSYNQRKSLFPLKTPISPGTSKERKDIHPRTEAVRQDPESSYISIKVNEQSPLLHNEGQHQLQLQEEQEQQQQGLSQEELDFQTIIHQERSQQIGRIHTAVQEVNAIFHQLGSLVKEQGEQVTTIDENISHLHDNMQNANKQLTRADQHQRDRNKCGKVTLIIIIVVCMVVLLAVLS"}, "B4": {"name": "Nyv1, Q12255 1-253 (protein)", "chain": "B2 chain"}, "B5": {"name": "Vam3, Q12241 1-283 (protein)", "chain": "B3 chain"}, "B6": {"name": "Akr1 (enzyme, UniProt P39010 1-764)", "chain": "MVNELENVPRASTLTNEEQTVDPSNNDSQEDISLGDSNEITSLASLKAIRSGNEEESGNEQVNHNDEAEEDPLLTRYHTACQRGDLATVKEMIHGKLLEVNNDGDSTEHITGLHWASINNRLSVVDFLVSQGADVNARAGALHATPLHWAARYGYVYIVDFLLKHGADPTMTDDQGFNLLHLSVNSSNIMLVLYVLFNVVSKGLLDIDCRDPKGRTSLLWAAYQGDSLTVAELLKFGASIKIADTEGFTPLHWGTVKGQPHVLKYLIQDGADFFQKTDTGKDCFAIAQEMNTVYSLREALTHSGFDYHGYPIKKWFKKSQHAKLVTFITPFLFLGIAFALFSHINPLFVIIVLFLLAIATNKGLNKFVLPSYGRMGVHNVTLLRSPLLSGVFFGTLLWVTIVWFFKVMPRTFSDEQYTNILMLVILVSVFYLFGQLVIMDPGCLPEETDHENVRQTISNLLEIGKFDTKNFCIETWIRKPLRSKFSPLNNAVVARFDHYCPWIFNDVGLKNHKAFIFFITLMESGIFTFLALCLEYFDELEDAHEDTSQKNGKCFILGASDLCSGLIYDRFVFLILLWALLQSIWVASLIFVQAFQICKGMTNTEFNVLMKESKSIGPDGLSFNENFNTTPEGFAPSIDPGEESNDTVLAPVPGSTIRKPRTCFGVCYAVTGMDQWLAVIKETIGIKDSTGHNVYSITSRIPTNYGWKRNVKDFWLTSDINAPLWRRILYPPSGSKALLNGIEVDYFKLYKLPNKDVEQGNDMV"}},
  "assay_in_all_cases": "cross-linking",
  "key": {"[1]": {"molecular_target": "T1, Nyv1 (Saccharomyces cerevisiae (endogenous in yeast vacuoles)) (UniProt Q12255)", "T1 sequence": "B2 chain"}, "[2]": {"molecular_target": "T2, Ivy1 (Saccharomyces cerevisiae (endogenous in yeast vacuoles)) (UniProt Q04934)", "T2 sequence": "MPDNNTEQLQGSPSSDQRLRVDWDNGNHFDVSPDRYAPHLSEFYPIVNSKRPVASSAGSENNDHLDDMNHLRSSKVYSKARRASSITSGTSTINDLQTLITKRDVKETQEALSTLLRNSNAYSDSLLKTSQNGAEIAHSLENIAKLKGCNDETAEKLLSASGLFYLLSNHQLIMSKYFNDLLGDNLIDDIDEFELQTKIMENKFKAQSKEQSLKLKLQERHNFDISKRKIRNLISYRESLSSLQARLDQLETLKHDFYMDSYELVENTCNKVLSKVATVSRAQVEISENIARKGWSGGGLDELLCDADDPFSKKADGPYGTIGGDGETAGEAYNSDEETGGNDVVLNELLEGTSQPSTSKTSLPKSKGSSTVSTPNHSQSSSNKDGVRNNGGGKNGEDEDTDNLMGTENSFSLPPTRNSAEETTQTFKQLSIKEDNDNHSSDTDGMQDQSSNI"}, "[3]": {"molecular_target": "T3, Ssh4 (Saccharomyces cerevisiae (endogenous in yeast vacuoles)) (UniProt P32343)", "T3 sequence": "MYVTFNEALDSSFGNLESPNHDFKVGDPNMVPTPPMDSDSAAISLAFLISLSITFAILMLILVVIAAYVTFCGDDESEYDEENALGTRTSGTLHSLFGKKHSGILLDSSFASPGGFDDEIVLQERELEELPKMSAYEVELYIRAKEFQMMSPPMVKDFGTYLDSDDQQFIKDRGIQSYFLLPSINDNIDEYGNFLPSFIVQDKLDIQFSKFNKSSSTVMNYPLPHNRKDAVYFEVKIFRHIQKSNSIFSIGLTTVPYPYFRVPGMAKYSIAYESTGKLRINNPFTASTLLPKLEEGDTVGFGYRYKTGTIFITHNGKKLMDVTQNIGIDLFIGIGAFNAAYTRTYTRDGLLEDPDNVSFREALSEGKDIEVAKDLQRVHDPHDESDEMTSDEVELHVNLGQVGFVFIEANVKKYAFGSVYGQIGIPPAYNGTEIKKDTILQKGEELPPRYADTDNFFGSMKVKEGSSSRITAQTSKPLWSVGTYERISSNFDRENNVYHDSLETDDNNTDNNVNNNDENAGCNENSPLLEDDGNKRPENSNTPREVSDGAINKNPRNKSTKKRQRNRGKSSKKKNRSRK"}, "[4]": {"molecular_target": "T4, Sec17 (Saccharomyces cerevisiae (endogenous in yeast vacuoles)) (UniProt P32602)", "T4 sequence": "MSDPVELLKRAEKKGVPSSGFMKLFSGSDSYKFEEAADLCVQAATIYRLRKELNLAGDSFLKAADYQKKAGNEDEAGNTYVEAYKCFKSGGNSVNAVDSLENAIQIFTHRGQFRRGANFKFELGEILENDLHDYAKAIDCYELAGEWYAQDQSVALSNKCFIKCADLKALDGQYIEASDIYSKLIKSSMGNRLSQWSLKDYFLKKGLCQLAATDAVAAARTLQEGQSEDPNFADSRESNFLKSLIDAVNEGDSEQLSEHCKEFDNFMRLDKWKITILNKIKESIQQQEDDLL"}, "[5]": {"molecular_target": "T5, Vam3 (Saccharomyces cerevisiae (endogenous in yeast vacuoles)) (UniProt Q12241)", "T5 sequence": "B3 chain"}, "[6]": {"molecular_target": "Vps33 (Saccharomyces cerevisiae (endogenous in yeast vacuoles)) (UniProt P20795)"}, "[7]": {"molecular_target": "Vps16 (Saccharomyces cerevisiae (endogenous in yeast vacuoles)) (UniProt Q03308)"}, "[8]": {"molecular_target": "T6, Sec17 (Saccharomyces cerevisiae (endogenous in yeast vacuoles)), P32602", "T6 chain": "T4 sequence", "conditions": "remark: other sources report otherwise"}, "[9]": {"molecular_target": "T7, Lcb4 (Saccharomyces cerevisiae (endogenous in yeast vacuoles)) (UniProt Q12246)", "T7 sequence (chain, palmitoylated (site not printed))": "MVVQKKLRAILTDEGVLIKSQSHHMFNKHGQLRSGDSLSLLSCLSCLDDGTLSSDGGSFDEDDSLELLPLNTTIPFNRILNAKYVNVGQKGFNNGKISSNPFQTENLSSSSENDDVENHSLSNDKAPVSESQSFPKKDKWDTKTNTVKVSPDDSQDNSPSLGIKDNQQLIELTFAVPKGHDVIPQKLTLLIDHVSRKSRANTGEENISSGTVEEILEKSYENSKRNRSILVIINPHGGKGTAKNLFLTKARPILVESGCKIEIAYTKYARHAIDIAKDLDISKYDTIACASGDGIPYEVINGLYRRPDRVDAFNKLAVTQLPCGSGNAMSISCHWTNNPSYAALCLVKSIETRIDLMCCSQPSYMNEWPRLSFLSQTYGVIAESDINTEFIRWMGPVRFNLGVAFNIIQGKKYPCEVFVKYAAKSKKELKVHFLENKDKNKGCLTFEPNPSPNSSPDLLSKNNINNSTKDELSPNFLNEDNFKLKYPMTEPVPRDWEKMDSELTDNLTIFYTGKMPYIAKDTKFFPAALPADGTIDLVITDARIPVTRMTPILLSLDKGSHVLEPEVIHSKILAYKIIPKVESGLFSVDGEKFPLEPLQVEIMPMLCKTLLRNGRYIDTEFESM"}},
  "note": "No constants are given. Whether binding was seen depends on the method and setting. Binding seen in cells or lysates may run through a third protein. Some entries that bind do so weakly or less than the wild type. For part of these data: Tags and fused reporters may be left off the sequences shown.",
  "data": [
    {"molecule": "Vti1 (from UniProt Q04338 1-217)", "values": [
      {"measurement": "binding", "setting": "[1]", "result": "binds"}
    ]},
    {"molecule": "Ypt7 (from UniProt P32939 1-208)", "values": [
      {"measurement": "binding", "setting": "[2]", "result": "binds"}
    ]},
    {"molecule": "Rsp5 (from UniProt P39940 1-809) (enzyme)", "values": [
      {"measurement": "binding", "setting": "[3]", "result": "binds"}
    ]},
    {"molecule": "B1", "values": [
      {"measurement": "binding", "setting": "[4]", "result": "binds"},
      {"measurement": "binding", "setting": "[5]", "result": "binds"}
    ]},
    {"molecule": "B2", "values": [
      {"measurement": "binding", "setting": "[6]", "result": "binds"},
      {"measurement": "binding", "setting": "[7]", "result": "binds"}
    ]},
    {"molecule": "B3", "values": [
      {"measurement": "binding", "setting": "[1]", "result": "binds"},
      {"measurement": "binding", "setting": "[7]", "result": "binds"}
    ]},
    {"molecule": "B4", "values": [
      {"measurement": "binding", "setting": "[8]", "result": "binds"}
    ]},
    {"molecule": "B5", "values": [
      {"measurement": "binding", "setting": "[8]", "result": "binds"}
    ]},
    {"molecule": "B6", "values": [
      {"measurement": "binding", "setting": "[9]", "result": "binds"}
    ]}
  ]
}
